Measurements published in the supplement of paper PMC10849652.
The other results are listed elsewhere or left out.

Sequences of proteins named here, by UniProt entry; tags and fusion partners are left off. A change or cut given only in a name is not applied to a line headed by its entry.
UniProt Q16698: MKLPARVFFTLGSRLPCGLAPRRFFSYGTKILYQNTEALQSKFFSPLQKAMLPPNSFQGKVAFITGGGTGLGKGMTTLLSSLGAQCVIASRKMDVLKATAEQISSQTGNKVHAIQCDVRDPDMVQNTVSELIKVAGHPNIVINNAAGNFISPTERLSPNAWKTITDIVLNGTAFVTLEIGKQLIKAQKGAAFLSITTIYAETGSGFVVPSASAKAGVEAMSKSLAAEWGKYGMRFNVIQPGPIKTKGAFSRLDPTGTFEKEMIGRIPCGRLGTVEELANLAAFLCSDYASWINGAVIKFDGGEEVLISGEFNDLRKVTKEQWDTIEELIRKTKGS
UniProt Q8TDD1, whole entry, looked up: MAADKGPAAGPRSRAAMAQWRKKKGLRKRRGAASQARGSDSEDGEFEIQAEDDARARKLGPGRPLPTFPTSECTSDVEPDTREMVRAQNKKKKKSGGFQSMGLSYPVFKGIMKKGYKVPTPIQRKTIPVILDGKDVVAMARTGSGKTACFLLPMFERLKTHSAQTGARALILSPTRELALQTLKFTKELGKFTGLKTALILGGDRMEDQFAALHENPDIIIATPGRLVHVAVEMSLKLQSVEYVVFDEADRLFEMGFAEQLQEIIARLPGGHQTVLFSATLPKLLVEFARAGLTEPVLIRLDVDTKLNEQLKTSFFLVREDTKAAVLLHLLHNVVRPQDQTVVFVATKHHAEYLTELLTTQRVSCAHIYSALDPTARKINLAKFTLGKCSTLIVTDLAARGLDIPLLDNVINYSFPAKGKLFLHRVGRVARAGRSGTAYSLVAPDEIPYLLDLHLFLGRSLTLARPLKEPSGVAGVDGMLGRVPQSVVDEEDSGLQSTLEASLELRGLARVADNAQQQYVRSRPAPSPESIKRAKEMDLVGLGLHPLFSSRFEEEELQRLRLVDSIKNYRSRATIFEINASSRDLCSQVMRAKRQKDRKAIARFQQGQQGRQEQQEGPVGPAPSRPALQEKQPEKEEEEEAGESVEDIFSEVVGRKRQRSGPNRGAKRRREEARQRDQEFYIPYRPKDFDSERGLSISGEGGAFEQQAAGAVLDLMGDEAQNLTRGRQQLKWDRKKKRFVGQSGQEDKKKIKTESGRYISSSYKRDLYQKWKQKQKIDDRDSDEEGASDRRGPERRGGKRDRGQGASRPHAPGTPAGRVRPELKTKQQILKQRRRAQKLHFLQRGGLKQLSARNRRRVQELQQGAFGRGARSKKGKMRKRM
UniProt Q9NPI6: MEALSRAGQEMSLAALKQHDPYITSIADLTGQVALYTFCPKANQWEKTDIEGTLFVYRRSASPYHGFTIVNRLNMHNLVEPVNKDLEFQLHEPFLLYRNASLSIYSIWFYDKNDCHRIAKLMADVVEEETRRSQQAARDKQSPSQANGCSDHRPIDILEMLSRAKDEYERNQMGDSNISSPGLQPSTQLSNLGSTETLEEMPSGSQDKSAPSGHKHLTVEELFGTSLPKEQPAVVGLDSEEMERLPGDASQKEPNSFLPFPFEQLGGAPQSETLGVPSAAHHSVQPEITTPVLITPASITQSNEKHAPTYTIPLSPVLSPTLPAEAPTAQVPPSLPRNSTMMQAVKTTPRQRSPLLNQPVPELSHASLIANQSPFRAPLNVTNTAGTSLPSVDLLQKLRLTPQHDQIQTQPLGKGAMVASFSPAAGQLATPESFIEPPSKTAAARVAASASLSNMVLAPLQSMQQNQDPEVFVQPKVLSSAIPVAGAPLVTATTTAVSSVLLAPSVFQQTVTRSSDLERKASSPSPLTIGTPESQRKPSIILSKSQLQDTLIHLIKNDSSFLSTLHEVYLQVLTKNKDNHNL
UniProt Q9BTE1, whole entry, looked up: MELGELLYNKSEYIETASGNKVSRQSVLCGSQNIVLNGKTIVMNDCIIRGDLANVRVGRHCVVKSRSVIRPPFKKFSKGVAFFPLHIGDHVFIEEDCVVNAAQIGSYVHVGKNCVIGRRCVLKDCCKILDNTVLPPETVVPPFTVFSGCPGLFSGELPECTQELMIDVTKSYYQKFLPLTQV
UniProt Q13838, whole entry, looked up: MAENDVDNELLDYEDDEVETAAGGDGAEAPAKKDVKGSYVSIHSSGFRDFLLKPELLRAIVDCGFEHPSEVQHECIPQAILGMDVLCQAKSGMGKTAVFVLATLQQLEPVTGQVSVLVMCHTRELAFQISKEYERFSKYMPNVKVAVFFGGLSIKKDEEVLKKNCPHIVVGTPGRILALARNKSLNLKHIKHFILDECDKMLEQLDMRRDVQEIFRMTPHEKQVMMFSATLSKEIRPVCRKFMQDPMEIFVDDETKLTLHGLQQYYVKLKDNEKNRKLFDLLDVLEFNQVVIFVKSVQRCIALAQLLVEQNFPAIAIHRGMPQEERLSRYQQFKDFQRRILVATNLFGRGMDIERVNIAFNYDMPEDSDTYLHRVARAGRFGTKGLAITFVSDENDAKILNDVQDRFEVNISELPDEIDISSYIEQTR
UniProt Q16643: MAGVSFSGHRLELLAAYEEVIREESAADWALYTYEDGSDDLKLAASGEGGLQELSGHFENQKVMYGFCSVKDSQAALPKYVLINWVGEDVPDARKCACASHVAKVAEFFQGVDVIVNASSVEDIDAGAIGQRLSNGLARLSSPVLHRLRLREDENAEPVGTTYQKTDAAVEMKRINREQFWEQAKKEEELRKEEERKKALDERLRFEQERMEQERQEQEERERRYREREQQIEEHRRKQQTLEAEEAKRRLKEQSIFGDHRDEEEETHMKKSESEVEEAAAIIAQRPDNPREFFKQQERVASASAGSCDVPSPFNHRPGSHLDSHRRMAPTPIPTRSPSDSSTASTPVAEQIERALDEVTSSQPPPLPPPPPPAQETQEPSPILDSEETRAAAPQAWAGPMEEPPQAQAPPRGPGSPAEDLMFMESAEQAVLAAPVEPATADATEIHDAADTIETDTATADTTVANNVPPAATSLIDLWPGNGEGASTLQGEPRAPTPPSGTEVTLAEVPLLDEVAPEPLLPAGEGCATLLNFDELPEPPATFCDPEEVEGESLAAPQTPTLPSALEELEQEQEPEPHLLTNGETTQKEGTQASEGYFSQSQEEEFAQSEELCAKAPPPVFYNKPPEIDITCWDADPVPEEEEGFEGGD
UniProt Q16850: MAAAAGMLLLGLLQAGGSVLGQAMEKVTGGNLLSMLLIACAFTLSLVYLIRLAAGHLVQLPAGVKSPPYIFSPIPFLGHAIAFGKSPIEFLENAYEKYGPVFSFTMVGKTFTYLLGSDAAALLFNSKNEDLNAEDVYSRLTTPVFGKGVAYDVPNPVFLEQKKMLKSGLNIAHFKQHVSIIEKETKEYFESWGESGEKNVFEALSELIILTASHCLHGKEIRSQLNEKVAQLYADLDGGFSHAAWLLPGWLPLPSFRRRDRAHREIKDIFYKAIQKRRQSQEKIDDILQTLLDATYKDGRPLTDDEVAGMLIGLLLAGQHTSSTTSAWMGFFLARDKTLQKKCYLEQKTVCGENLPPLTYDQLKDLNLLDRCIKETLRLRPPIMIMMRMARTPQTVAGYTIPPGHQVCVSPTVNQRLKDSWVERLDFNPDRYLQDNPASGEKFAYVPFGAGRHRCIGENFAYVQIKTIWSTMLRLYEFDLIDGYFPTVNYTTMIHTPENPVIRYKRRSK
UniProt P11182, whole entry, looked up: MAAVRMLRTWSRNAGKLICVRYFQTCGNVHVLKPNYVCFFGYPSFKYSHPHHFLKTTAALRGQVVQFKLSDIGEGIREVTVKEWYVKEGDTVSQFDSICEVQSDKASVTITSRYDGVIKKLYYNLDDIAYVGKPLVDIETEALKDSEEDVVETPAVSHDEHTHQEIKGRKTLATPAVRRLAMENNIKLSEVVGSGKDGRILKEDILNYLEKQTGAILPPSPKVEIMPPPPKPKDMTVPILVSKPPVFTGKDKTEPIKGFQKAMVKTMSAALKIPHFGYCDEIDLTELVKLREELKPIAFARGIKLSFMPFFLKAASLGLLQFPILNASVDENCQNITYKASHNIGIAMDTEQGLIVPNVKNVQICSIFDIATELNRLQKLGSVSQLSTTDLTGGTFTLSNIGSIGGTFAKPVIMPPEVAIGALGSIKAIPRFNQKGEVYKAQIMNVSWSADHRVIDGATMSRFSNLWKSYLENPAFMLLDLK
UniProt Q7Z401: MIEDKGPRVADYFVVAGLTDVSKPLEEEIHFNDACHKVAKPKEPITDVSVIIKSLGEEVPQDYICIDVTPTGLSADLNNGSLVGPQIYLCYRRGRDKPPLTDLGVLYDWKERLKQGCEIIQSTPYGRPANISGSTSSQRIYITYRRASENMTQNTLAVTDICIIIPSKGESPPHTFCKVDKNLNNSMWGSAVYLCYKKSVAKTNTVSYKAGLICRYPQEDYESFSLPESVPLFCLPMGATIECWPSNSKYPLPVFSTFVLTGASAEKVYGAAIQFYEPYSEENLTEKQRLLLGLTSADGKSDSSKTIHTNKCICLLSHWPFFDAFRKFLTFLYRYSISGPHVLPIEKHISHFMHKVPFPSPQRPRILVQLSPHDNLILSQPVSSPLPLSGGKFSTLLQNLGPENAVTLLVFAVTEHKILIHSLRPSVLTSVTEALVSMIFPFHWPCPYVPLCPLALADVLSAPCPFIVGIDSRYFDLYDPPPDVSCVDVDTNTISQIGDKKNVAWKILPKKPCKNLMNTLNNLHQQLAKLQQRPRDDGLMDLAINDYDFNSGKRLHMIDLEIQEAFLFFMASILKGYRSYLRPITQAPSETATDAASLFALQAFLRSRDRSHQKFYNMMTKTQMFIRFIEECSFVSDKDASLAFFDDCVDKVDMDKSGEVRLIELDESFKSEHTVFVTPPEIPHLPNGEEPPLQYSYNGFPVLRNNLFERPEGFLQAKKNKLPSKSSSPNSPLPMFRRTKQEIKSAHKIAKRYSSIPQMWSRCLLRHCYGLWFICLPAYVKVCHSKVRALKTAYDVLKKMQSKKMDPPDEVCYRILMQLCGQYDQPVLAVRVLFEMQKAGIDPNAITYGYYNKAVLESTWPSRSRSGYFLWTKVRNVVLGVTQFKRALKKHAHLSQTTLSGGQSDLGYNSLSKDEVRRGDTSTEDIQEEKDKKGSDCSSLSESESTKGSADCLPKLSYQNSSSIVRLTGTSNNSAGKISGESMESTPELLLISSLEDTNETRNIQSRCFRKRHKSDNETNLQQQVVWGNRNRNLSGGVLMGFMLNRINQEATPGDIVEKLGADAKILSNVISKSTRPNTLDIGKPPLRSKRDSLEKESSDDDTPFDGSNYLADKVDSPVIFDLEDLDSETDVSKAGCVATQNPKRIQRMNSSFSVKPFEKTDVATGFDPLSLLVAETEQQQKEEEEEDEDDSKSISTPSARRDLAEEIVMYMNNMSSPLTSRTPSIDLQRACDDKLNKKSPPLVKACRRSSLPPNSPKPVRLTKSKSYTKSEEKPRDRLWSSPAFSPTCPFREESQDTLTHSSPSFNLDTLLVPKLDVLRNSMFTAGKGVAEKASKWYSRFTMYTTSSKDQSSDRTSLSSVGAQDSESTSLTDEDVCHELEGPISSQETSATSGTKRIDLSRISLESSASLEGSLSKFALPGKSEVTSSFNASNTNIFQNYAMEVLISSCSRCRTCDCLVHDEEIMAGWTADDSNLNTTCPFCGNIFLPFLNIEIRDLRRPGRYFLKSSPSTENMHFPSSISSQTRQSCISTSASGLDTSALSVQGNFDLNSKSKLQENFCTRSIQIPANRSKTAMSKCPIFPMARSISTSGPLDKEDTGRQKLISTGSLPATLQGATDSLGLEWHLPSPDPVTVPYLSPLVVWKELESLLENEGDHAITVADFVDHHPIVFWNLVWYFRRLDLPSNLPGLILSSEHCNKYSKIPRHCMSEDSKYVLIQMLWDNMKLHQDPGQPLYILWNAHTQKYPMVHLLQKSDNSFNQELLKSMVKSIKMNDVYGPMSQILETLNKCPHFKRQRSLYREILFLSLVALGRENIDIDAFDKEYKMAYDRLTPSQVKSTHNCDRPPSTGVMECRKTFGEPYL
UniProt Q9NUU7: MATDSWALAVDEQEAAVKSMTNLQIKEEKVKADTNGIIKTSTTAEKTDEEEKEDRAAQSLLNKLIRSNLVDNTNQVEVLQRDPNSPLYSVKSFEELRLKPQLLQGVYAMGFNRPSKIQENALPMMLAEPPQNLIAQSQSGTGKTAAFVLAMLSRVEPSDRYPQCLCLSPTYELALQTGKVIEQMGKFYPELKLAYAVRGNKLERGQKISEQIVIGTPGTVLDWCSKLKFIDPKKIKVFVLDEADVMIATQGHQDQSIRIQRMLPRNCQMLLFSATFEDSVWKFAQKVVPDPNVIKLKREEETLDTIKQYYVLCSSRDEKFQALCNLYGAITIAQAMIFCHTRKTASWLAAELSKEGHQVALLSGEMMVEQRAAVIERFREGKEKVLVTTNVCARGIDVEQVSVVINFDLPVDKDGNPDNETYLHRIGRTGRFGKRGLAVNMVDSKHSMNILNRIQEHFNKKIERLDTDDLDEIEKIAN

Columns and labels:
Assay in all cases: log2 fold change, soluble protein after heating vs DMSO (PISA); higher = thermal stabilisation; K562 lysate, 10 uM; active = over 0.2 and 3.5 SD of the protein, either way, in both replicates (recomputed)
erlotinib = compound: C#Cc1cccc(Nc2ncnc3cc(OCCOC)c(OCCOC)cc23)c1 [erlotinib]
Summary of the method: (§1)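 K562 pellets were dounce-homogenised in PBS pH 7.4 with 1 mM MgCl2, and the crude extract at 1 mg/mL protein was treated with 10 μM compound for 30 min. Aliquots were heated for 3 min across 48°C-58°C, pooled, and brought to 0.5% NP-40 at 4°C; soluble protein was the supernatant after 21,000xg for 90 min. Soluble protein was quantified by TMTpro 16plex LC-MS/MS with channel sums equalised, and reported as log2 fold change in thermal stability against DMSO controls, with values from duplicates.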

[1] = compound: C/C(=N\NC(=O)C1=CC(=CC=C1)S(=O)(=O)N2CCOCC2)/C3=C(C=CC(=C3)Cl)O
Summary of the method: as §1

[2] = compound: C1=CC(=CC=C1C2=NC3=C(N2)C=C(C=C3)C(=O)N)OC4=CC=C(C=C4)Cl
Summary of the method: as §1

[3] = compound: C1=CC2=C(C=CC(=C2)/C=C\3/C(=O)NC(=NCC4=CC=CS4)S3)N=C1
Summary of the method: as §1

[4] = compound: C1=CC2=NC=CN=C2C=C1/C=C/3\C(=O)NC(=O)S3
Summary of the method: as §1

[5] = compound: C1=CC=C(C=C1)C2=NC(=C(N2)C3=CC=NC=C3)C4=CC(=C(C=C4)Cl)O
Summary of the method: as §1

[6] = compound: C1=CC=C2C(=C1)C3=NNC4=CC=CC(=C43)C2=O
Summary of the method: as §1

[7] = compound: C1CCN(C1)C(=O)NC2=CC=CC(=C2)NC3=NC=C(C(=N3)NCCC4=CN=CN4)Br
Summary of the method: as §1

[8] = compound: C1CN(CCC1(CC2=CC=C(C=C2)Cl)N)C3=NC=NC4=C3C=CN4
Summary of the method: as §1

IRAK-1-4 Inhibitor I = compound: C1COCCN1CCN2C3=CC=CC=C3N=C2NC(=O)C4=CC(=CC=C4)[N+](=O)[O-] [IRAK-1-4 Inhibitor I]
Summary of the method: as §1

ibrutinib = compound: C=CC(=O)N1CCC[C@@H](n2nc(-c3ccc(Oc4ccccc4)cc3)c3c(N)ncnc32)C1 [ibrutinib]
Summary of the method: as §1

[9] = compound: CC(=O)c1cnc2ccc(-c3cc(Cl)c(O)c(Cl)c3)nc2c1N[C@H]1CC[C@H](CN(C)C)CC1
Summary of the method: as §1

ralimetinib = compound: CC(C)(C)Cn1c(N)nc2ccc(-c3[nH]c(C(C)(C)C)nc3-c3ccc(F)cc3)nc21 [ralimetinib]
Summary of the method: as §1

[10] = compound: CC(C)(O)CC(=O)NCCn1ccc2ncnc(Nc3ccc(Oc4cccc(C(F)(F)F)c4)c(Cl)c3)c21
Summary of the method: as §1

[11] = compound: CC(C)C1=C2N=C(C=C(N2N=C1)NCC3=CC=CC=C3)NCCCCCCN
Summary of the method: as §1

[12] = compound: CC1=C(C(CC(=O)N1)C2=CC=C(C=C2)C(F)(F)F)C(=O)NC3=C(C=C4C(=C3)C=NN4)F
Summary of the method: as §1

[13] = compound: CC1=C(C2=C(C=C1)C(=O)C3=CC=CC=C3N2CCCN)C
Summary of the method: as §1

[14] = compound: CC1=C(C=C(C=C1)NC(=O)C2=CC(=CC=C2)C(C)(C)C#N)NC3=CC4=C(C=C3)N=CN(C4=O)C
Summary of the method: as §1

[15] = compound: CC1=C(C=C(C=C1)NC(=O)C2=CC(=CC=C2)N(C)C)NC(=O)C3=CC=C(C=C3)O
Summary of the method: as §1

[16] = compound: CC1=CC=C(C=C1)SC2=C3C=C(SC3=CN=C2)C(=O)N
Summary of the method: as §1

Measured: log2 fold change

DECR1 (UniProt Q16698)
inactive: erlotinib -0.009 | [1] 0.044 | [2] -0.01 | [3] -0.006 | [4] -0.014 | [5] 0.001 | [6] -0.014 | [7] -0.013 | [8] -0.005 | IRAK-1-4 Inhibitor I -0.014 | ibrutinib 0.006 | [9] 0.001 | ralimetinib 0.027 | [10] 0.012 | [11] 0.01 | [12] 0.01 | [13] -0.01 | [14] -0.011 | [15] -0.004 | [16] 0.007

DDX31 (UniProt Q9H8H2)
inactive: erlotinib 0.155 | [1] -0.01 | [2] 0.104 | [3] 0.028 | [4] -0.023 | [5] 0.021 | [6] -0.047 | [7] -0.084 | [8] 0.135 | IRAK-1-4 Inhibitor I -0.013 | ibrutinib 0.045 | [9] -0.023 | ralimetinib -0.007 | [10] 0.019 | [11] -0.061 | [12] -0.012 | [13] 0.023 | [14] 0.034 | [15] 0.109 | [16] 0.001

DDX54 isoform 2 (UniProt Q8TDD1)
inactive: erlotinib -0.088 | [1] -0.36 | [2] -0.038 | [3] -0.035 | [4] -0.191 | [5] -0.001 | [6] -0.054 | [7] 0.069 | [8] 0.014 | IRAK-1-4 Inhibitor I -0.058 | ibrutinib -0.005 | [9] 0.006 | ralimetinib 0.036 | [10] 0.023 | [11] -0.001 | [12] 0.02 | [13] -0.054 | [14] -0.054 | [15] -0.006 | [16] 0.013

DCP1A (UniProt Q9NPI6)
inactive: erlotinib 0.038 | [1] 0.025 | [2] 0.03 | [3] 0.004 | [4] -0.03 | [5] 0.014 | [6] -0.033 | [7] 0.013 | [8] 0.012 | IRAK-1-4 Inhibitor I -0.045 | ibrutinib 0 | [9] -0.016 | ralimetinib 0.004 | [10] -0.042 | [11] 0.025 | [12] 0.013 | [13] -0.02 | [14] 0.046 | [15] 0.011 | [16] 0

Pulled one by one from the entries so far, two records:
DCP1A (UniProt Q9NPI6)
inactive: erlotinib 0.038 | [1] 0.025 | [2] 0.03 | [3] 0.004 | [4] -0.03 | [5] 0.014 | [6] -0.033 | [7] 0.013 | [8] 0.012 | IRAK-1-4 Inhibitor I -0.045 | ibrutinib 0 | [9] -0.016 | ralimetinib 0.004 | [10] -0.042 | [11] 0.025 | [12] 0.013 | [13] -0.02 | [14] 0.046 | [15] 0.011 | [16] 0

DECR1 (UniProt Q16698)
inactive: erlotinib -0.009 | [1] 0.044 | [2] -0.01 | [3] -0.006 | [4] -0.014 | [5] 0.001 | [6] -0.014 | [7] -0.013 | [8] -0.005 | IRAK-1-4 Inhibitor I -0.014 | ibrutinib 0.006 | [9] 0.001 | ralimetinib 0.027 | [10] 0.012 | [11] 0.01 | [12] 0.01 | [13] -0.01 | [14] -0.011 | [15] -0.004 | [16] 0.007

Going on with the list.

DAB2 (UniProt P98082)
inactive: erlotinib 0.019 | [1] -0.063 | [2] 0.066 | [3] -0.006 | [4] 0.023 | [5] -0.049 | [6] -0.004 | [7] -0.033 | [8] 0.092 | IRAK-1-4 Inhibitor I 0.019 | ibrutinib 0.071 | [9] 0.028 | ralimetinib 0.009 | [10] -0.061 | [11] 0.015 | [12] -0.004 | [13] 0.015 | [14] -0.003 | [15] 0.015 | [16] 0.002

DCTN5 (UniProt Q9BTE1)
inactive: erlotinib -0.013 | [1] 0.205 | [2] 0.035 | [3] 0.027 | [4] -0.045 | [5] 0.041 | [6] -0.046 | [7] 0.029 | [8] -0.142 | IRAK-1-4 Inhibitor I -0.011 | ibrutinib 0.102 | [9] 0.021 | ralimetinib -0.014 | [10] -0.086 | [11] -0.094 | [12] -0.011 | [13] -0.054 | [14] 0.007 | [15] -0.088 | [16] -0.013

DDX39B isoform 2 (UniProt Q13838)
inactive: erlotinib -0.004 | [1] 0.002 | [2] -0.029 | [3] -0.034 | [4] 0.024 | [5] -0.01 | [6] 0.003 | [7] 0.006 | [8] -0.024 | IRAK-1-4 Inhibitor I -0.01 | ibrutinib 0.028 | [9] 0.007 | ralimetinib -0.004 | [10] 0.005 | [11] -0.012 | [12] 0.003 | [13] -0.002 | [14] -0.012 | [15] 0.008 | [16] -0.004

DCTN1 (UniProt Q14203)
inactive: erlotinib 0.007 | [1] -0.001 | [2] -0.001 | [3] -0.001 | [4] 0.019 | [5] -0.001 | [6] -0.023 | [7] 0 | [8] -0.003 | IRAK-1-4 Inhibitor I -0.005 | ibrutinib -0.005 | [9] 0.01 | ralimetinib 0.013 | [10] -0.02 | [11] -0.006 | [12] 0.001 | [13] 0.011 | [14] -0.013 | [15] 0.009 | [16] 0.011

DBN1 (UniProt Q16643)
inactive: erlotinib 0.004 | [1] -0.03 | [2] 0.037 | [3] -0.027 | [4] -0.006 | [5] 0.031 | [6] -0.02 | [7] 0.022 | [8] 0.013 | IRAK-1-4 Inhibitor I 0.026 | ibrutinib 0.008 | [9] -0.007 | ralimetinib 0.006 | [10] -0.029 | [11] 0.009 | [12] 0.018 | [13] 0.012 | [14] 0.029 | [15] 0.003 | [16] -0.03

DCTN2 (UniProt Q13561)
inactive: erlotinib -0.17 | [1] 0.005 | [2] 0.128 | [3] -0.038 | [4] 0.157 | [5] -0.005 | [6] 0.044 | [7] 0.041 | [8] 0.077 | IRAK-1-4 Inhibitor I 0.08 | ibrutinib -0.005 | [9] 0.031 | ralimetinib 0.105 | [10] -0.001 | [11] -0.115 | [12] -0.193 | [13] -0.02 | [14] -0.37 | [15] 0 | [16] -0.127

CYP51A1 (UniProt Q16850)
inactive: erlotinib -0.029 | [1] 0.045 | [2] 0.193 | [3] 0.058 | [4] -0.087 | [5] -0.041 | [6] 0.118 | [7] -0.092 | [8] -0.023 | IRAK-1-4 Inhibitor I 0.043 | [9] -0.025 | ralimetinib -0.025 | [10] 0.101 | [11] 0.038 | [12] -0.017 | [13] -0.031 | [14] -0.093 | [15] 0.014 | [16] -0.099
active: ibrutinib 0.601

DBT (UniProt P11182)
inactive: erlotinib 0.034 | [1] 0.019 | [2] 0.002 | [3] 0.013 | [4] -0.042 | [5] 0.016 | [6] 0.024 | [7] 0.015 | [8] -0.018 | IRAK-1-4 Inhibitor I 0.013 | ibrutinib 0.029 | [9] -0.002 | ralimetinib -0.016 | [10] -0.018 | [11] -0.014 | [12] -0.022 | [13] 0.004 | [14] 0.032 | [15] -0.009 | [16] 0.001

DDX5 (UniProt P17844)
inactive: erlotinib -0.002 | [1] 0.02 | [2] 0.013 | [3] 0.004 | [4] -0.043 | [5] 0.001 | [6] 0.029 | [7] -0.006 | [8] -0.012 | IRAK-1-4 Inhibitor I -0.019 | ibrutinib 0.004 | [9] -0.005 | ralimetinib -0.016 | [10] 0.043 | [11] 0.02 | [12] 0.002 | [13] 0.033 | [14] -0.019 | [15] -0.008 | [16] 0.011

DCAF11 (UniProt Q8TEB1)
inactive: erlotinib -0.037 | [1] -0.005 | [2] 0.032 | [3] -0.01 | [4] -0.026 | [5] 0.022 | [6] 0.016 | [7] 0.002 | [8] 0.063 | IRAK-1-4 Inhibitor I 0.01 | ibrutinib 0.101 | [9] -0.015 | ralimetinib -0.009 | [10] -0.02 | [11] 0.037 | [12] 0.035 | [13] -0.021 | [14] 0.019 | [15] -0.024 | [16] 0.033

DENND4A isoform 2 (UniProt Q7Z401)
inactive: erlotinib 0.023 | [1] -0.021 | [2] -0.015 | [3] 0.007 | [4] -0.045 | [5] 0.002 | [6] -0.041 | [7] 0.002 | [8] 0.012 | IRAK-1-4 Inhibitor I 0.017 | ibrutinib 0 | [9] -0.089 | ralimetinib 0.018 | [10] -0.028 | [11] 0.017 | [12] 0.006 | [13] 0.026 | [14] 0.029 | [15] 0.023 | [16] -0.009

DDX19A (UniProt Q9NUU7)
inactive: erlotinib 0 | [1] -0.016 | [2] 0.022 | [3] 0.006 | [4] -0.011 | [5] -0.008 | [6] -0.016 | [7] -0.056 | [8] 0.011 | IRAK-1-4 Inhibitor I -0.027 | ibrutinib -0.021 | [9] 0.003 | ralimetinib 0.032 | [10] -0.01 | [11] 0.016 | [12] 0.021 | [13] 0.013 | [14] 0.027 | [15] -0.015 | [16] -0.018
